Results taken from patent US5424395A (priority 1992, dated 1995).

Assay: general procedure: Boc solid-phase peptide synthesis; PAM resin (t-Boc-Ser(Bzl)-OCH2 PAM); DCC symmetrical anhydrides; DCC/HOBT active esters
Conditions: whole synthesis; for final HPLC purity: analytical HPLC, Vydac C-4, UV absorbance at 215 nm; for final HPLC purity / crude yield: scale of the general procedure 0.5 mmol
[1] = trifluoroacetate salts after HPLC, acetate salts after anion exchange

Substance: PEPTIDE1{G.I.G.K.F.L.F.S.A.K.K.F.G.K.A.F.V.G.E.I.M.N.S}$$$$V2.0
- final HPLC purity [1]: >98%

Substance: PEPTIDE1{G.I.G.K.F.L.H.A.A.K.K.F.G.K.A.F.V.G.E.I.M.N.S}$$$$V2.0
- final HPLC purity [1]: >95%

Substance: PEPTIDE1{G.I.G.K.F.L.H.E.A.K.K.F.G.K.A.F.V.G.E.I.M.N.S}$$$$V2.0
- final HPLC purity [1]: >90%

Substance: PEPTIDE1{G.I.G.K.F.L.H.S.A.G.K.F.A.K.A.F.V.A.E.I.M.K.S}$$$$V2.0
- final HPLC purity (trifluoroacetate salts after HPLC, acetate salts after anion exchange, run 1): 65% and >98%
- crude mass (hydrofluoride): 259 mg
- crude yield [1]: 72%

Substance: PEPTIDE1{G.I.G.K.F.L.H.S.A.G.K.F.G.K.A.F.V.A.E.I.M.K.S}$$$$V2.0
- final HPLC purity [1]: about 73%
- crude mass (hydrofluoride): 285 mg
- crude yield [1]: 66%

Substance: PEPTIDE1{G.I.G.K.F.L.H.S.A.H.H.F.G.K.A.F.V.G.E.I.M.N.S}$$$$V2.0
- final HPLC purity [1]: greater than 95% pure
- crude yield [1]: 71%
- crude mass [1]: 320 mg

Substance: PEPTIDE1{G.I.G.K.F.L.H.S.A.H.K.F.G.K.A.F.V.G.E.I.M.N.S}$$$$V2.0
- final HPLC purity [1]: greater than 98% pure
- crude mass (scale 0.5 mmol, trifluoroacetate salts after HPLC, acetate salts after anion exchange): 432 mg
- crude yield [1]: 82%

Substance: PEPTIDE1{G.I.G.K.F.L.H.S.A.K.H.F.G.K.A.F.V.G.E.I.M.N.S}$$$$V2.0
- final HPLC purity [1]: greater than 95% pure

Substance: PEPTIDE1{G.I.G.K.F.L.H.S.A.K.K.F.G.K.A.F.V.G.E.I.M.N}$$$$V2.0
- final HPLC purity [1]: >92%

Substance: PEPTIDE1{G.I.G.K.F.L.H.S.A.K.K.F.G.K.A.F.V.G.E.I.M}$$$$V2.0
- final HPLC purity [1]: >94%

Substance: PEPTIDE1{G.I.G.K.F.L.H.T.A.K.K.F.G.K.A.F.V.G.E.I.M.N.S}$$$$V2.0
- final HPLC purity [1]: >95%

Substance: PEPTIDE1{G.I.G.K.F.L.K.S.A.K.K.F.G.K.A.F.V.G.E.I.M.N.S}$$$$V2.0
- final HPLC purity [1]: >96%

Substance: PEPTIDE1{G.K.F.L.H.S.A.G.K.F.G.K.A.F.V.G.E.I.M.K.S}$$$$V2.0
- crude mass (hydrofluoride): 430 mg
- crude yield [1]: 92%

Substance: PEPTIDE1{I.G.K.F.L.H.S.A.G.K.F.G.K.A.F.V.G.E.I.M.K.S}$$$$V2.0
- final HPLC purity [1]: 48%
- crude mass (hydrofluoride): 350 mg
- crude yield [1]: 84%

Substance: PEPTIDE1{M.G.I.G.K.F.L.H.S.A.G.K.F.A.K.A.F.V.A.E.I.M.K.S}$$$$V2.0
- final HPLC purity [1]: 67%
- crude mass (hydrofluoride): 104 mg
- crude yield [1]: 37%

Substance: PEPTIDE1{M.G.I.G.K.F.L.H.S.A.G.K.F.G.K.A.F.V.G.E.I.M.K.S}$$$$V2.0
- final HPLC purity [1]: 66%
- crude mass (hydrofluoride): 250 mg
- crude yield [1]: 69%

Substance: PEPTIDE1{M.G.I.G.K.F.L.H.S.A.K.K.F.A.K.A.F.V.A.E.I.M.N.S}$$$$V2.0
- final HPLC purity [1]: greater than 97% pure

Substance: PEPTIDE1{M.G.I.G.K.F.L.H.S.A.K.K.F.G.K.A.F.V.G.E.I.M.N.S}$$$$V2.0
- final HPLC purity (hexatrifluoroacetate): greater than 95% pure

Substance: PEPTIDE1{M.G.K.F.L.H.S.A.K.K.F.G.K.A.F.V.G.E.I.M.N.S}$$$$V2.0
- final HPLC purity [1]: greater than 97% pure
- crude yield [1]: 95%
- crude mass [1]: 824 mg

Substance: [Arg^7 ]Mag 2-OH
- final HPLC purity [1]: >96%

Where “and” joins values, the source holds several entries; their conditions need not be identical. Equal entries are not always repeated. Strings that start with PEPTIDE1 are HELM notation: dots part the residues, brackets hold end groups and non-standard residues.
